Measured data: PubChem BioAssay AID1159584 (Peter MacCallum Cancer Centre, 2016)

- Aim: 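Knock-downs that harm CDH1-null cells more than parental MCF10A cells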 (primary screen)
- Cell system: human MCF10A breast epithelial cells, parental and CDH1-null
- Reagent: siRNA against human genes
- Read-out: 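ATP luminescence (CellTiter-Glo) viability per line relative to mean mock wells over all plates, and the ratio of CDH1-null to parental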
- Direction: CDH1-null / parental viability ratio: higher = CDH1-null cells survive relatively better than parental; CDH1-null viability vs mock: higher = more viable CDH1-null cells; parental viability vs mock: higher = more viable parental cells
The deposit covers about 18,000 reagents; below is a random part of them. No sequences are given here. Not stated in the record: the amount of reagent, the time to read-out.

gene knocked down	CDH1-null / parental viability ratio	CDH1-null viability vs mock (fraction of mock)	parental viability vs mock (fraction of mock)
TLN1 (talin 1)	0.82	0.59	0.72
SNX19 (sorting nexin 19)	1.48	0.86	0.58
PRDM16 (PR/SET domain 16)	0.96	1.08	1.12
PPP2R5B (protein phosphatase 2 regulatory subunit B'beta)	1.15	1	0.87
LYVE1 (lymphatic vessel endothelial hyaluronan receptor 1)	0.66	0.42	0.64
SMPX (small muscle protein X-linked)	1.22	1.04	0.85
ZSCAN29 (zinc finger and SCAN domain containing 29)	1.11	0.73	0.66
PRR21 (proline rich 21)	0.83	0.5	0.6
LAYN (layilin)	0.77	0.88	1.15
PLAT (plasminogen activator, tissue type)	1.36	0.61	0.45
RNMT (RNA guanine-7 methyltransferase)	0.93	1.06	1.14
TAS2R10 (taste 2 receptor member 10)	1.33	0.73	0.55
APOBEC3C (apolipoprotein B mRNA editing enzyme catalytic subunit 3C)	1	0.6	0.6
PRRT3 (proline rich transmembrane protein 3)	0.74	0.55	0.74
DEFB1 (defensin beta 1)	0.79	0.55	0.7
UGT3A2 (UDP glycosyltransferase family 3 member A2)	0.96	0.92	0.96
MAGEB4 (MAGE family member B4)	1.03	0.92	0.89
TSHZ1 (teashirt zinc finger homeobox 1)	0.82	0.74	0.9
POLDIP2 (DNA polymerase delta interacting protein 2)	1.08	0.65	0.6
FGFBP2 (fibroblast growth factor binding protein 2)	1.1	0.88	0.8
AP5M1 (adaptor related protein complex 5 subunit mu 1)	1.03	0.68	0.66
ZNF511 (zinc finger protein 511)	0.75	0.48	0.64
ZP4 (zona pellucida glycoprotein 4)	0.89	0.74	0.83

Just “parental viability vs mock (fraction of mock)”, for 5 of the entries above:
TSHZ1 (teashirt zinc finger homeobox 1) = 0.9
POLDIP2 (DNA polymerase delta interacting protein 2) = 0.6
FGFBP2 (fibroblast growth factor binding protein 2) = 0.8
AP5M1 (adaptor related protein complex 5 subunit mu 1) = 0.66
ZNF511 (zinc finger protein 511) = 0.64

The listing continues:
gene knocked down	CDH1-null / parental viability ratio	CDH1-null viability vs mock (fraction of mock)	parental viability vs mock (fraction of mock)
DRC5 (dynein regulatory complex subunit 5)	1.06	0.68	0.64
RDH12 (retinol dehydrogenase 12)	0.8	0.72	0.9
SERPINA12 (serpin family A member 12)	0.94	1.02	1.09
SPTAN1 (spectrin alpha, non-erythrocytic 1)	0.71	0.46	0.65
NEU2 (neuraminidase 2)	0.84	0.62	0.74
BTNL8 (butyrophilin like 8)	0.9	0.7	0.78
PAX3 (paired box 3)	1.17	1.08	0.92
TMEM37 (transmembrane protein 37)	1.07	0.81	0.76
DDRGK1 (DDRGK domain containing 1)	0.9	0.69	0.77
RPIA (ribose 5-phosphate isomerase A)	0.76	0.92	1.21
TICAM2 (TIR domain containing adaptor molecule 2)	1.08	0.64	0.59
PPP1R27 (protein phosphatase 1 regulatory subunit 27)	0.97	0.93	0.96
VILL (villin like)	1.4	0.84	0.6
CCL22 (C-C motif chemokine ligand 22)	0.81	0.96	1.18
CNGA4 (cyclic nucleotide gated channel subunit alpha 4)	1.25	0.94	0.75
ZCCHC10 (zinc finger CCHC-type containing 10)	0.92	0.6	0.65
SCOC (short coiled-coil protein)	0.72	0.71	0.98
GLYATL2 (glycine-N-acyltransferase like 2)	0.88	0.88	1
SCMH1 (Scm polycomb group protein homolog 1)	1.07	1.07	1
KCTD11 (potassium channel tetramerization domain containing 11)	1.28	0.37	0.29
PGA5 (pepsinogen A5)	1.15	0.94	0.82
HCRTR2 (hypocretin receptor 2)	0.85	0.97	1.14
OR10H5 (olfactory receptor family 10 subfamily H member 5)	1.1	1.08	0.98
